Laboratory results reported in article PMC9700865.
Results are given in words; binding and its absence hold for the method and conditions named. Binding seen in cells or lysates may run through a third protein. Some entries that bind do so weakly or less than the wild type. One block for each substance: values may come before it.

Protein sequences, listed by entry. Tags and fused reporters are not part of them. Lines headed by an entry give the natural chain unless they say otherwise; changes in a name come on top. Chains listed by the source or under a name are the forms on record and can include a tag or linker. Residues count along the entry.
UniProt Q92786: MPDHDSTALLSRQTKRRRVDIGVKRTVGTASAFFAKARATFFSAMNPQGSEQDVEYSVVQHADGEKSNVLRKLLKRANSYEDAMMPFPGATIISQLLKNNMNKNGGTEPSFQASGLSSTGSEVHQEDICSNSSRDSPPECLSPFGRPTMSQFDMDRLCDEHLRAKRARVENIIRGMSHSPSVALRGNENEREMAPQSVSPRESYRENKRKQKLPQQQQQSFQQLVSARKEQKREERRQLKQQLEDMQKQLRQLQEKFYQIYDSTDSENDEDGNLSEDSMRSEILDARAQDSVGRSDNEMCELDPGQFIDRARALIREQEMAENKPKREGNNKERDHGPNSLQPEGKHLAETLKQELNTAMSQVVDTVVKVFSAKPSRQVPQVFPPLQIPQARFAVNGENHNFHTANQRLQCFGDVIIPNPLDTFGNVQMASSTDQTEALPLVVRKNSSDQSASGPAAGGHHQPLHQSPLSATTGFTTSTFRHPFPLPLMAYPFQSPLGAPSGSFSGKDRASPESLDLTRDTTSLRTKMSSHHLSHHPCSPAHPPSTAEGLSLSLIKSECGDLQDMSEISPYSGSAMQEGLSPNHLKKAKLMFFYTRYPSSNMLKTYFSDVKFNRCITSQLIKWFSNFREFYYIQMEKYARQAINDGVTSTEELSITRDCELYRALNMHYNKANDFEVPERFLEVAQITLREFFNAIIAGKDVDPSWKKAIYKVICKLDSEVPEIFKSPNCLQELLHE
GST-PROX1 N-terminal fragment P1 (residues 1-337), wild type: residues 1-337 of Q92786
GST-PROX1 P1 (1-337) S79A (Q92786, form named): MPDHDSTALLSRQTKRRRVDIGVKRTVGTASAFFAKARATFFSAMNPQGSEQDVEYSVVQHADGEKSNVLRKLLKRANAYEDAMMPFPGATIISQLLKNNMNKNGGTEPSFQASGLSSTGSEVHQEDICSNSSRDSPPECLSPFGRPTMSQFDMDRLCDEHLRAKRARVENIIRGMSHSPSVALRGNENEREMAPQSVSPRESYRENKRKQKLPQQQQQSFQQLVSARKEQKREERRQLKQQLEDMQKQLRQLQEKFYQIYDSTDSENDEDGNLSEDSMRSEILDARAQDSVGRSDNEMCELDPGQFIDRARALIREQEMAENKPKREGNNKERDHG
GST-PROX1 P1 S79E (Q92786, form named): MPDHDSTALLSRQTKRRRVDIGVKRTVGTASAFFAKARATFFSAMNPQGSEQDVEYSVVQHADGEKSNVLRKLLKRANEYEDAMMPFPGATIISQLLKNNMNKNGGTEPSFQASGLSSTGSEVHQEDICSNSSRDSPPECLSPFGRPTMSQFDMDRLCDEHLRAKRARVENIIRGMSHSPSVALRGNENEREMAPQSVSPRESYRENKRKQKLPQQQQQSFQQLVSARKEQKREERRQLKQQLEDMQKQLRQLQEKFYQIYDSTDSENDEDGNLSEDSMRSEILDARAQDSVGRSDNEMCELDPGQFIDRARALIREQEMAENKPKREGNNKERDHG
UniProt P54646: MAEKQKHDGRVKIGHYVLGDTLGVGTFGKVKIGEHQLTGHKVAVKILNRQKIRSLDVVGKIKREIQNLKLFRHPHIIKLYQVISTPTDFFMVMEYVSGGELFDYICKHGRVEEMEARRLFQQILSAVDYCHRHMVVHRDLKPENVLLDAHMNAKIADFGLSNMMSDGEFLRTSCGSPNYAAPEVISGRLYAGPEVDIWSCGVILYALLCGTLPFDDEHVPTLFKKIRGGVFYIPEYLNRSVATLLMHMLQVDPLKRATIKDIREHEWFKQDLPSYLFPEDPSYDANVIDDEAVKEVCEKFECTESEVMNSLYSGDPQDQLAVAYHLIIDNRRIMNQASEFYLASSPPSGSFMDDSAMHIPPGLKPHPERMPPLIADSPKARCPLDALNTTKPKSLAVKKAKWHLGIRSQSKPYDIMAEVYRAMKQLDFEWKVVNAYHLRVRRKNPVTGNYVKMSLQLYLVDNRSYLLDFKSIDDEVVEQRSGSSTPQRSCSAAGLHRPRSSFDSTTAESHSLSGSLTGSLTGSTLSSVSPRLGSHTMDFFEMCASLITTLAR
UniProt Q13619: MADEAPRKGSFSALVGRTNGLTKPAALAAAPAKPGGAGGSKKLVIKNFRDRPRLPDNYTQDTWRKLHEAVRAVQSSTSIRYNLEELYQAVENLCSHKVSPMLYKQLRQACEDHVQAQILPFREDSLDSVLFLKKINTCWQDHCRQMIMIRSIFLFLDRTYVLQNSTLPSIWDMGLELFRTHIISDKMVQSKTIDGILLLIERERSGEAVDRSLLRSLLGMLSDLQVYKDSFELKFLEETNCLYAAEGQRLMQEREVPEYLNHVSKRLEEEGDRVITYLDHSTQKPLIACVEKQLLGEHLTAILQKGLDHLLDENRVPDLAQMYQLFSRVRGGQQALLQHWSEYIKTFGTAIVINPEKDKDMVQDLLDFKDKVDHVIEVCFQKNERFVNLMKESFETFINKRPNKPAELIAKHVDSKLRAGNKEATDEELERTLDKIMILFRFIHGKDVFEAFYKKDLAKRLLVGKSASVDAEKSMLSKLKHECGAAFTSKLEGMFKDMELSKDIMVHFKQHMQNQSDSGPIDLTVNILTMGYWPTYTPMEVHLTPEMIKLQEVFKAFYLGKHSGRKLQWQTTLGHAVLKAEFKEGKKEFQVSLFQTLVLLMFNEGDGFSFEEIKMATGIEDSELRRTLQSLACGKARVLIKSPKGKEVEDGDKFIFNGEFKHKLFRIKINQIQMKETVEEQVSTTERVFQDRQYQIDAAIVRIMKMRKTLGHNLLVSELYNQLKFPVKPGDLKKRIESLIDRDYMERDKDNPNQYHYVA
UniProt Q13620: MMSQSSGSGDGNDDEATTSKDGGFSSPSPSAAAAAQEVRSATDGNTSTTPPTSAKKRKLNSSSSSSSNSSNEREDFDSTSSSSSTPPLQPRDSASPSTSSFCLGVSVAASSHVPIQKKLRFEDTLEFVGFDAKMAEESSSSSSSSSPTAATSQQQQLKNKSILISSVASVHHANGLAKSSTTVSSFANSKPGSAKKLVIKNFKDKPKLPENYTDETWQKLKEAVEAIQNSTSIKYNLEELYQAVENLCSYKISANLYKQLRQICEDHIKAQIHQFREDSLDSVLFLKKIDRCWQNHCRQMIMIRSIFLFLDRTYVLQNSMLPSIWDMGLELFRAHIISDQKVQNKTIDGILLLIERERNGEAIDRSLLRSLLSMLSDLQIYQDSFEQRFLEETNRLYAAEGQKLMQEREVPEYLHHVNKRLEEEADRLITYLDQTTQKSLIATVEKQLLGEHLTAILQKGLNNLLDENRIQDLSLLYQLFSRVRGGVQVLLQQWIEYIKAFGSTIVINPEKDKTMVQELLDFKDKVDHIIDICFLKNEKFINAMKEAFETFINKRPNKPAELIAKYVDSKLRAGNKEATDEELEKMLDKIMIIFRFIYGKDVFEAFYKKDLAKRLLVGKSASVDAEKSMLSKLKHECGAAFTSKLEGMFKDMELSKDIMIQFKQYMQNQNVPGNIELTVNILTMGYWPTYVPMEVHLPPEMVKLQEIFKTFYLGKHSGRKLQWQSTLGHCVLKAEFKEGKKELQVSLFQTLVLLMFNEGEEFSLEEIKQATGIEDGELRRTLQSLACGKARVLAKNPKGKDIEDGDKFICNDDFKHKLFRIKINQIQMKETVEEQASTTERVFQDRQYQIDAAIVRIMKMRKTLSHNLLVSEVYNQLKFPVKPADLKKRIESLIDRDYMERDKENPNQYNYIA
UniProt Q93034: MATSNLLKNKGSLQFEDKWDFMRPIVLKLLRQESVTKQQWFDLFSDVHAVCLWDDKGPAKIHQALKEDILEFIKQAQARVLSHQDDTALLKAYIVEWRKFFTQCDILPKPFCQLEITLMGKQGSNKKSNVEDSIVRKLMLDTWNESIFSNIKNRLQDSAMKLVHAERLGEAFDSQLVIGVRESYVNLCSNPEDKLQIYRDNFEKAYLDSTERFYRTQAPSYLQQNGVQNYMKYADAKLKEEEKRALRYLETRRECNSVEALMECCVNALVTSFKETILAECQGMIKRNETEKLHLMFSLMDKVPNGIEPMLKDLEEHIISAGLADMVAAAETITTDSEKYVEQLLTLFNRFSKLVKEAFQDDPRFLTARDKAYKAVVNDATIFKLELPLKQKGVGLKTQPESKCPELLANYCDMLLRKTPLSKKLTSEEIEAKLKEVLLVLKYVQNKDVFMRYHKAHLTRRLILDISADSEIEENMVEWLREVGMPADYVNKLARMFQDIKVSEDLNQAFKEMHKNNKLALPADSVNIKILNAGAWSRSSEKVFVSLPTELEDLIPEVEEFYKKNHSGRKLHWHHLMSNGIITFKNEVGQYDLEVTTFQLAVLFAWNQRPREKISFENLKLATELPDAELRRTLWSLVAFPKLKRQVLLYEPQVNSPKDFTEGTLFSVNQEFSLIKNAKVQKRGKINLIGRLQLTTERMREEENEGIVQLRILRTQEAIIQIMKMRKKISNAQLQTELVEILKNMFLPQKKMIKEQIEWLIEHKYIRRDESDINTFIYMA
UniProt Q16531: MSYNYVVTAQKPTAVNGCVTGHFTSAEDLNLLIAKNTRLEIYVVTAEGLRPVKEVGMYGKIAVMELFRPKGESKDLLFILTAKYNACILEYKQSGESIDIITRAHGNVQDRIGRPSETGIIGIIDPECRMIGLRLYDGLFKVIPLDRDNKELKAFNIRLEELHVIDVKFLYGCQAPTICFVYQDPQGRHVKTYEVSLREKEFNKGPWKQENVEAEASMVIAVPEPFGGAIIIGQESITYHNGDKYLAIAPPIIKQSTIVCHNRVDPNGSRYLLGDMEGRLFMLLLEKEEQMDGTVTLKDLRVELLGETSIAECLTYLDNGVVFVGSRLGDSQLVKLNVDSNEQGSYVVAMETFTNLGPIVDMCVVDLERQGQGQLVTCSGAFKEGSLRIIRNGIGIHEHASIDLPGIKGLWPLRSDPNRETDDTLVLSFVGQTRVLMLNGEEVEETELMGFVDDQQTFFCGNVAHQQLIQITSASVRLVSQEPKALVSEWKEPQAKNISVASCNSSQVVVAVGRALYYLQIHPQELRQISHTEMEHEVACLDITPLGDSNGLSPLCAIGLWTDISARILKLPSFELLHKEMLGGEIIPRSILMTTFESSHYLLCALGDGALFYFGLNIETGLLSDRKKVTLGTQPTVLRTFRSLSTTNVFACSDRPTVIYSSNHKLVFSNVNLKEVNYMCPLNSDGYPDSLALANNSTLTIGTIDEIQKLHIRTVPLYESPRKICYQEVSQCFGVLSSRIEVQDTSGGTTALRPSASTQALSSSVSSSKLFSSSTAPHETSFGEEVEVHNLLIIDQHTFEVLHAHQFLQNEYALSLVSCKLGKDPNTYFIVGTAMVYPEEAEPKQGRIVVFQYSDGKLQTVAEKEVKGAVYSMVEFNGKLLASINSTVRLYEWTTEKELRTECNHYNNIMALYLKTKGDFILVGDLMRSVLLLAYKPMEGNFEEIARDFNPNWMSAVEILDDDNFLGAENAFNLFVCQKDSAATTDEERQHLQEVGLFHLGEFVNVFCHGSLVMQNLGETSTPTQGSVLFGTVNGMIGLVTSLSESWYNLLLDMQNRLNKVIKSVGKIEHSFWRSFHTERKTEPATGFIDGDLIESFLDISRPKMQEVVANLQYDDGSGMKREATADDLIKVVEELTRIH

Legend:
[1] = molecular target: FLAG-PROX1 expressed in HepG2 (UniProt Q92786); experiment: co-IP; HepG2 cells transfected with FLAG-PROX1, deprived of glucose for 8 h in the presence of MG132
[2] = molecular target: Endogenous PROX1 in Huh7 cells (human (endogenous in Huh7)) (UniProt Q92786); experiment: co-IP; endogenous PROX1 in Huh7 cells treated with MG132 (4uM) immunoprecipitated with anti-PROX1 antibody or isotype IgG control, immunoblot
[3] = molecular target: GST-PROX1 N-terminal fragment P1 (residues 1-337), wild type (UniProt Q92786); experiment: pull-down; purified recombinant GST-PROX1 (P1-WT, S79A and S79E) incubated with DDB1 individually; source of DDB1 not told
[4] = molecular target: GST-PROX1 P1 (1-337) S79A (UniProt Q92786); experiment: as above
[5] = molecular target: GST-PROX1 P1 S79E (UniProt Q92786); experiment: as above
[6] = molecular target: GST-AMPKα2 (UniProt P54646); experiment: pull-down; GST-AMPKα2 incubated with FLAG-PROX1 (whole, S79 variants or fragments) produced in HEK293T cells; only the target purified
[7] = molecular target: FLAG-PROX1, wild type, expressed in HEK293T (UniProt Q92786); experiment: co-IP; HEK293T cells cotransfected with PROX1 (whole or FLAG-PROX1 fragments) and CUL proteins or DDB1
[8] = molecular target: GST-AMPKα2 (UniProt P54646); experiment: pull-down; GST or GST-AMPKα2 from E. coli incubated with in vitro translated full-length PROX1; PROX1 detected by anti-PROX1 antibody; only the target purified

binding [1]: binds
Substance: CUL4A in HepG2 cells (from UniProt Q13619 1-759)

binding [2]: binds
Substance: CUL4A in Huh7 cells (from UniProt Q13619 1-759)

binding [1]: binds
Substance: CUL4B in HepG2 cells (from UniProt Q13620 1-913)

binding [2]: binds
Substance: CUL4B in Huh7 cells (from UniProt Q13620 1-913)

binding [2]: no binding
Substance: CUL5 in Huh7 cells (from UniProt Q93034 1-780)

binding [1]: binds
Substance: DDB1 in HepG2 cells (from UniProt Q16531 1-1140)

binding [2]: binds
Substance: DDB1 in Huh7 cells (from UniProt Q16531 1-1140)

binding [3]: binds | binding [4]: binds | binding [5]: binds
Substance: DDB1 incubated with GST-PROX1 (Fig. 3f) (from UniProt Q16531 1-1140)

binding [6]: binds
Substance: FLAG-PROX1 S79A, expressed in HEK293T (from UniProt Q92786 1-737)

binding [6]: binds
Substance: FLAG-PROX1 S79E, expressed in HEK293T (from UniProt Q92786 1-737)

binding [6]: binds
Substance: FLAG-PROX1, wild type, expressed in HEK293T (from UniProt Q92786 1-737)

binding [7]: binds
Substance: HA-CUL4A (from UniProt Q13619 1-759)

binding [7]: binds
Substance: HA-CUL4B (from UniProt Q13620 1-913)

binding [8]: binds
Substance: Prospero-related homeobox 1 (PROX1), full length, in vitro translated (from UniProt Q92786 1-737)
